This note sets out measurements from doi:10.1101/2024.07.02.601518.

Sequences of proteins named here, by UniProt entry; tags and fusion partners are left off.
UniProt Q13148: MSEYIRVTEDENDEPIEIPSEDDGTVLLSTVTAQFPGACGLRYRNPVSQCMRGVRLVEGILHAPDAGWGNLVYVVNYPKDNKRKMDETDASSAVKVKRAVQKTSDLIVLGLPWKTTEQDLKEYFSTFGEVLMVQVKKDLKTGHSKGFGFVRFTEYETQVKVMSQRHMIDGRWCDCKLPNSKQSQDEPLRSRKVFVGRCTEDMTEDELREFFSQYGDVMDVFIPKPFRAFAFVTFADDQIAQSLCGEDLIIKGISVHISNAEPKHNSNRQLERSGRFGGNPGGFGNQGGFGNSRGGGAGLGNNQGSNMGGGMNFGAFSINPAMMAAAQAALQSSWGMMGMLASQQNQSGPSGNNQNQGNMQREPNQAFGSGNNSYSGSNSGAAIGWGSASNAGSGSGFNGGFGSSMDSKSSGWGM
UniProt Q16665: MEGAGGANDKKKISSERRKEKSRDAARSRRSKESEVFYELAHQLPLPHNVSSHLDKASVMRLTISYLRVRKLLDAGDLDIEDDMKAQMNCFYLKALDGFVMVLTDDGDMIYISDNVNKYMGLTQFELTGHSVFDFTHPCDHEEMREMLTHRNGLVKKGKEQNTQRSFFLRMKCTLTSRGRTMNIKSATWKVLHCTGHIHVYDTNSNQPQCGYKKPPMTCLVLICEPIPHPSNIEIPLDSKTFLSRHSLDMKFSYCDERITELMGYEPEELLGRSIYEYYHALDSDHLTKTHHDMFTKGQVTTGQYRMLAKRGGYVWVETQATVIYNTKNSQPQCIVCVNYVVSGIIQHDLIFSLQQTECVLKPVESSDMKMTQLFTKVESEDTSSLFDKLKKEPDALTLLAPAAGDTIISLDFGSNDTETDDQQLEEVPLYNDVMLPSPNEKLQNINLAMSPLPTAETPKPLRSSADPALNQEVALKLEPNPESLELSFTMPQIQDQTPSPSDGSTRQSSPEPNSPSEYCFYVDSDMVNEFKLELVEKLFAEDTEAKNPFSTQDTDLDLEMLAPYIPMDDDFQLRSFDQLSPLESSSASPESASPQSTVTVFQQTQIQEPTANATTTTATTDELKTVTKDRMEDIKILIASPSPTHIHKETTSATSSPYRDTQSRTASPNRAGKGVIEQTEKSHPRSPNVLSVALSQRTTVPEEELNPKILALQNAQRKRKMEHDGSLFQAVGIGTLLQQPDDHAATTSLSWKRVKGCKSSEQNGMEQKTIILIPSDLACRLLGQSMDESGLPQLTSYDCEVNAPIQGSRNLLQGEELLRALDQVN
UniProt Q9H0K1: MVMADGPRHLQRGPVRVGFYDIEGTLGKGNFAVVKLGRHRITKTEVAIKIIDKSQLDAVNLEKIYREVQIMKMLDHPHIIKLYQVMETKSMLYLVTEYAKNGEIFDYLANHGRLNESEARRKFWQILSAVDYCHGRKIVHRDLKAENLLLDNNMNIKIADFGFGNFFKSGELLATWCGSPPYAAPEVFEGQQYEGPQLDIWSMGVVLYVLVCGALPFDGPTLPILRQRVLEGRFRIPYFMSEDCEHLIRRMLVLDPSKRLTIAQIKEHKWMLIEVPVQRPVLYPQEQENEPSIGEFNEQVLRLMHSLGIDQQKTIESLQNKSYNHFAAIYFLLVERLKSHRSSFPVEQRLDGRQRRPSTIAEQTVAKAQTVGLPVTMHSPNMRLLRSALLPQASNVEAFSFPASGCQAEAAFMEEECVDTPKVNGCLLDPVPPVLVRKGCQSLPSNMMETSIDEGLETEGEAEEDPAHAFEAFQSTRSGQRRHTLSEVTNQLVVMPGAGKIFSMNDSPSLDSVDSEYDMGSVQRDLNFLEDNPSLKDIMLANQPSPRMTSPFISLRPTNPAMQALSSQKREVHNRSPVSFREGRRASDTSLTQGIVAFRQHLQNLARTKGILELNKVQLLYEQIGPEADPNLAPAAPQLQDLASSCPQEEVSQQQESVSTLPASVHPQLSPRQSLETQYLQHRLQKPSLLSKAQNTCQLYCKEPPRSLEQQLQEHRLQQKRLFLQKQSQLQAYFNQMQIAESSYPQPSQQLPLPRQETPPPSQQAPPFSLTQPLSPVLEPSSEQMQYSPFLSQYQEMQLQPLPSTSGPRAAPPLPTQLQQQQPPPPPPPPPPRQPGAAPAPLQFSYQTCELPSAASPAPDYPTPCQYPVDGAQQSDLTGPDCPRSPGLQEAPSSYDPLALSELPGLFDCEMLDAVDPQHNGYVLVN

Results are given in words; binding and its absence hold for the method and conditions named. In cells and extracts the contact can be indirect. Some results given as binding are weak or reduced against the parent protein; the word gives no strength.

The target of assay [1] is TDP-43, human (human (endogenous in UT7/TPO)) (UniProt Q13148). Put plainly: co-IP.
Assay [2] has as its target Hypoxia-inducible factor 1-alpha (HIF-1α), human (human (endogenous in UT7/TPO)) (UniProt Q16665). Put plainly: co-IP.

“Hypoxia-inducible factor 1-alpha (HIF-1α), human (from UniProt Q16665 1-826)”: the binding result in assay [1] is recorded as “binds”.

“TDP-43, human (from UniProt Q13148 1-414)”: the binding result in assay [2] is “binds”.

Regarding SIK2, human (from UniProt Q9H0K1 1-926), in assay [2], the binding entry is “binds”.
